This test concerns the target T1, AtPUB19 (Arabidopsis thaliana) (UniProt O80742).
T1 sequence: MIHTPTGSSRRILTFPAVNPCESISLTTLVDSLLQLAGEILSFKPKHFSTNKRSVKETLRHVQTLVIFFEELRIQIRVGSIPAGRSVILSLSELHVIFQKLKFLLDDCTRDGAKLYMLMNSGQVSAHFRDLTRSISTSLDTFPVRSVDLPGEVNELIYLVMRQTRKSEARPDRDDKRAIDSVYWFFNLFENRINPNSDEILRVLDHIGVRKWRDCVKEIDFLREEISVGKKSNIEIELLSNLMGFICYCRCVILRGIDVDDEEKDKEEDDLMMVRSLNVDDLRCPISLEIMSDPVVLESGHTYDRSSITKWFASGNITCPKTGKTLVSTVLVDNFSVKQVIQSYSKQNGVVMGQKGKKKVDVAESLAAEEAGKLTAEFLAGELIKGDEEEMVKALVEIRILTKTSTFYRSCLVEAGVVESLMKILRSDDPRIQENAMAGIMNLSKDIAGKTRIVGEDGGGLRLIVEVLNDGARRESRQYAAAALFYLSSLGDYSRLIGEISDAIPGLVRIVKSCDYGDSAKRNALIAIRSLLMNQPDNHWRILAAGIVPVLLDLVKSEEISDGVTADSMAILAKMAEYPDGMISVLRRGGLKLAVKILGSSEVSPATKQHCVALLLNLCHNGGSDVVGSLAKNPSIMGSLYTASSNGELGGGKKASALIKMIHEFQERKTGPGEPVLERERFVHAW
The test is described as follows: two-hybrid; AtPUB19 against AtICE1, AtICE2, AtCBF1 and AtCBF2 (Supplemental Fig. S6); the method is not named in the sentences, which stand among the Y2H results; vectors not told.

These are yes or no findings as the source states them, for the method shown. Binding can be weak; no strength is given.

As for AtICE2 (Arabidopsis thaliana), the binding entry is “binds”.
